Data as given in PubChem BioAssay AID686943 (Drosophila RNAi Screening Center, 2013)
Test: 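Knockdowns that increase or decrease active ERK after insulin receptor stimulation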 (primary screen). Cell system: Drosophila S2R+ haemocyte-like cells expressing YFP-tagged ERK (Rolled). Knock-down reagent: long dsRNA against Drosophila genes. Conditions: insulin stimulation versus unstimulated cells; dose and duration not given. Measured: 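Per-plate z-scores of phospho-ERK immunostaining normalised to YFP-tagged ERK, measured with and without insulin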. Scale: replicate 1, z-score of dpERK with insulin and replicate 2, z-score of dpERK with insulin: higher = more active ERK per ERK-YFP after insulin.
In all, the deposit lists about 23,000 reagents; below is a random part of those with a known target gene and a result. 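Extra replicates exist only for a retested subset of genes; insulin dose and duration not given; both raised and lowered dpERK matter.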 The numbers tell different reagents against one gene apart. A plus sign joins genes that one reagent is predicted to hit. Further read-outs or replicates are left out here. Not given: the amount of reagent, the time to read-out.

gene knocked down	dsRNA no.	replicate 1, z-score of dpERK with insulin	replicate 2, z-score of dpERK with insulin
CG6724	1	0.2	0.34
CG13613	1	0.42	0.34
Amnionless	1	-0.5	-0.79
Gpo2	1	-0.41	-0.47
MsrA	1	0.73	0.49
hoe2	1	0	0.94
Tsp96F	1	0.95	0.12
Alg13	1	0.15	0.65
Mondo	1	0.14	-0.67
Mondo	2	0.77	0.61
Mondo	3	-0.99	-1.45
RpS18	1	-2.36	0.07
CG18213	1	0.71	-0.21
CG10920	1	0.07	-0.08
CG15144	1	0.79	0.31
S	1	-0.58	2.14
jvl	1	-5.65	-3.86
jvl	2	-0.26	-0.11
Gadd45	1	0.25	0.45
CG31975 + ovm	1	-0.82	-0.53
CG11882	1	0.57	0.42
CG7320	1	0.67	-0.38
TTLL4B	1	-0.63	-0.24
Cyp6a8	1	0.61	0.27
CG15571	1	-0.1	-0.56
mei-217 + mei-218	1	0.15	1.18
RpS19b	1	-0.41	-1.51
CG10803	1	0.01	0.06
CG14424	1	-0.53	-0.18
mus301	1	-0.68	0.61
sprt	1	0.46	0.24
Arp8	1	-0.13	-0.81
CG5516	1	1.7	0.33
CG5516	2	-0.62	0.25
CG13838	1	1.18	-0.68
CG1636	1	1.23	2.1
CG5790	1	-0.35	-0.12
CG32536 + CG32537	1	-0.17	-1.68
Cht9	1	0.49	0.62
Nse4	1	-0.28	0.86
CG17202	1	-1.48	-2.6
mip120	1	-0.77	-0.72
Nedd4	1	-0.1	-1.05
Nedd4	2	0.29	0.17
PK2-R2	1	-0.39	-1.67
egh	1	0.27	0.35
synr	1	0.52	0.52
CG40005 (retired record) + cta	1	1.38	-0.57
CG8673	1	0.11	0.08
mtd	1	0.38	0.82
mtd	2	0.47	0.78
mtd	3	0.72	-0.57
CG6931	1	-0.17	0.84
Ir60e	1	0.33	0.23
CG32115	1	-0.3	-0.18
ENGase	1	0.61	1.36
ENGase	2	0.16	0.98
